In patent US20240083920A1, “LOW MOLECULAR WEIGHT CORROLE COMPOSITIONS” (TECHNION RESEARCH & DEVELOPMENT FOUNDATION LTD, priority 2021, published 2024):

Assay: Electrochemical hydrogen production from protons, catalyst adsorbed onto Vulcan XC72R carbon
Settings: protons to hydrogen gas, 0.5 M H2SO4 under N2
Description: Inks of the corrole-containing carbons were prepared by mixing 1 mg from the solid mixtures described above, with 0.2 mL isopropanol, 0.8 mL H2O, and 10 μL of Nafion, followed by sonication for 20 min. Small quantities (5 μl) of this kind of inks were dropped on the surface of glassy carbon electrodes (GC), followed by drying the modified electrodes for 40 min at 45° C. This process was repeated once more for each electrode and also for the ink prepared from non-modified Vulcan XC72R. The performance of the electrode prepared from the latter was checked relative to the electrodes modified by (cor)Co(PPh3) and (cor)Mo(O), by examining the electrocatalytic hydrogen production from protons (FIG. 3).
Electrochemical hydrogen production was performed using 0.5 M H2SO4 solution under N2 by (cor)CoPPh3 and (cor)Mo(O) catalysts adsorbed onto Vulcan XC72R carbon as the solid support. Ag/AgCl and Pt wire were used as reference and counter electrodes, respectively.

(oxo)Molybdenum(V) Corrole [(cor)Mo(O)]
Faradaic Efficiency (FE): 92% | overpotential relative to 20% Pt: 280 mV
